Measured values published in article doi:10.1101/2022.01.05.475133 (bioRxiv, 2022).

Sequences of proteins named here, by UniProt entry; tags and fusion partners are left off. A change or cut given only in a name is not applied to a line headed by its entry.
UniProt O75762: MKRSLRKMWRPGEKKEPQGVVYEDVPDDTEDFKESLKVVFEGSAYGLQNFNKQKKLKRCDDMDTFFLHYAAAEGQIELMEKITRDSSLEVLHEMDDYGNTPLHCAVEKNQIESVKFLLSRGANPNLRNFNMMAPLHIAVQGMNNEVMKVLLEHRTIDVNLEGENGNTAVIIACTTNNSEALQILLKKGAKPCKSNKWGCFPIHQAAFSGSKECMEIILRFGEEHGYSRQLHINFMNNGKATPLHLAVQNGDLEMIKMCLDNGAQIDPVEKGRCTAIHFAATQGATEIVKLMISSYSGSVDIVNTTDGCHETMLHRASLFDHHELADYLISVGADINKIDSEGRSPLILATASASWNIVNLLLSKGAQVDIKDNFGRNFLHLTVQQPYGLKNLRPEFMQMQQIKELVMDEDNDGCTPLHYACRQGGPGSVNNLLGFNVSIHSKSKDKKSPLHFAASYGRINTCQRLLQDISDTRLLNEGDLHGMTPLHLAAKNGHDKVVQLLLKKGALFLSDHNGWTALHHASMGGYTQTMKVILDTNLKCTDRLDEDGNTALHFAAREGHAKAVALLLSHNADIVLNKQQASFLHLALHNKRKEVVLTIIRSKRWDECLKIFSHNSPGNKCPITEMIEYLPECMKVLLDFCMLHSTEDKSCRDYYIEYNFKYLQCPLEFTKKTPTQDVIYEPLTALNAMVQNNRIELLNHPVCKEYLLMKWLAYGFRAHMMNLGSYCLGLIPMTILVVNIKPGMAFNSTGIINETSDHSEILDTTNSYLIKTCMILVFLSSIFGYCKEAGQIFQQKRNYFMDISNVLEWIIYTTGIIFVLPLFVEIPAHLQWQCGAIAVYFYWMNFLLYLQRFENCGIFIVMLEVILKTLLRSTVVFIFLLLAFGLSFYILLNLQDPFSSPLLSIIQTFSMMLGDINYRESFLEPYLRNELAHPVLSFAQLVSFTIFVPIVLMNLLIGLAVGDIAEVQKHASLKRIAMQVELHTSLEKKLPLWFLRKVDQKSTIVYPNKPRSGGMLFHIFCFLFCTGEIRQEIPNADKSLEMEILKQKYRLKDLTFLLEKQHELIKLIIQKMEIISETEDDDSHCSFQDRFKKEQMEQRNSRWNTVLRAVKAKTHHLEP

Target: BioID2-fused WT human TRPA1 (human) (UniProt O75762)
Test: proximity labelling

| binding | Substance |
| --- | --- |
| binds | 3xFLAG-tagged WT human TRPA1 (from UniProt O75762 1-1119) |
| binds | 3xFLAG-tagged R919* human TRPA1 (from UniProt O75762 1-918) (domain or fragment) |

These are yes or no findings as the source states them, for the method shown. In cells and extracts the contact can be indirect. Here binding means that the protein was enriched with, or labelled near, the bait; the list need not be complete.
